Test results as given in publication doi:10.1101/2021.02.20.432055.

T1: SA1 (Stromalin Antigen 1, STAG1) (human (endogenous in HCT116)) (UniProt Q8WVM7)
T1 sequence: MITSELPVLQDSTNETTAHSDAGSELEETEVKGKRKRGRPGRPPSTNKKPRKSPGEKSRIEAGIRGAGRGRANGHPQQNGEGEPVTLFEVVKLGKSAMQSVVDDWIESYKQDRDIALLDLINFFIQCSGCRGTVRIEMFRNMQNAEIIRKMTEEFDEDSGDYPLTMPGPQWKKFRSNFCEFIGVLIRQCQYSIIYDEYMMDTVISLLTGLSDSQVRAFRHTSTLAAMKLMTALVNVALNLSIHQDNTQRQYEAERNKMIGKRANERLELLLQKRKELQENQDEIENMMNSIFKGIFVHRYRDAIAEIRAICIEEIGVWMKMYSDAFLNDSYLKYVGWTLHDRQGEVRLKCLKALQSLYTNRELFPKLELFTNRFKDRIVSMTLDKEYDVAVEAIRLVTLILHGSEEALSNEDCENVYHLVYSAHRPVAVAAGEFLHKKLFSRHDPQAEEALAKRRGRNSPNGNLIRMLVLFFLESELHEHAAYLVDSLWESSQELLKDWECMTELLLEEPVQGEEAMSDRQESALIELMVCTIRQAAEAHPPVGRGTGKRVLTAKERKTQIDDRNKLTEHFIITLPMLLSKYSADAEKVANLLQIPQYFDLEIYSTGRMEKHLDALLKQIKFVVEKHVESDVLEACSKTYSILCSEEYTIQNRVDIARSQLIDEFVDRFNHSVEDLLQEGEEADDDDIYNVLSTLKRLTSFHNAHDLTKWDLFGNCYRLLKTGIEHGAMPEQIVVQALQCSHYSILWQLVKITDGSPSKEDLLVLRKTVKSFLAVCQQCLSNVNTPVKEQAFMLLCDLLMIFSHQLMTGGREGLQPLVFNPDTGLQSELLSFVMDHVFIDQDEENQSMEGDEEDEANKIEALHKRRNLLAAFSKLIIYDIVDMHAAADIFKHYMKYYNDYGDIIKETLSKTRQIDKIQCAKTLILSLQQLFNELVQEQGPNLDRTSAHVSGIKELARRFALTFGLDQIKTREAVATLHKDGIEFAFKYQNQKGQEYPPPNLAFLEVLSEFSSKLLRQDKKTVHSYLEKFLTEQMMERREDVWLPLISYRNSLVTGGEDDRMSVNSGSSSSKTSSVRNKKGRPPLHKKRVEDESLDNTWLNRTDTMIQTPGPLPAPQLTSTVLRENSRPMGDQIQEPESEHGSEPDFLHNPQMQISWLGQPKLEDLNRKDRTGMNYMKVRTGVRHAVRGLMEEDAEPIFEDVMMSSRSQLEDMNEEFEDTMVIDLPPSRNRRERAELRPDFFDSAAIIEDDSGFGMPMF

B1: PDS5B (protein, UniProt Q9NTI5 1-1447)
chain: MAHSKTRTNDGKITYPPGVKEISDKISKEEMVRRLKMVVKTFMDMDQDSEEEKELYLNLALHLASDFFLKHPDKDVRLLVACCLADIFRIYAPEAPYTSPDKLKDIFMFITRQLKGLEDTKSPQFNRYFYLLENIAWVKSYNICFELEDSNEIFTQLYRTLFSVINNGHNQKVHMHMVDLMSSIICEGDTVSQELLDTVLVNLVPAHKNLNKQAYDLAKALLKRTAQAIEPYITNFFNQVLMLGKTSISDLSEHVFDLILELYNIDSHLLLSVLPQLEFKLKSNDNEERLQVVKLLAKMFGAKDSELASQNKPLWQCYLGRFNDIHVPIRLECVKFASHCLMNHPDLAKDLTEYLKVRSHDPEEAIRHDVIVSIVTAAKKDILLVNDHLLNFVRERTLDKRWRVRKEAMMGLAQIYKKYALQSAAGKDAAKQIAWIKDKLLHIYYQNSIDDRLLVERIFAQYMVPHNLETTERMKCLYYLYATLDLNAVKALNEMWKCQNLLRHQVKDLLDLIKQPKTDASVKAIFSKVMVITRNLPDPGKAQDFMKKFTQVLEDDEKIRKQLEVLVSPTCSCKQAEGCVREITKKLGNPKQPTNPFLEMIKFLLERIAPVHIDTESISALIKQVNKSIDGTADDEDEGVPTDQAIRAGLELLKVLSFTHPISFHSAETFESLLACLKMDDEKVAEAALQIFKNTGSKIEEDFPHIRSALLPVLHHKSKKGPPRQAKYAIHCIHAIFSSKETQFAQIFEPLHKSLDPSNLEHLITPLVTIGHIALLAPDQFAAPLKSLVATFIVKDLLMNDRLPGKKTTKLWVPDEEVSPETMVKIQAIKMMVRWLLGMKNNHSKSGTSTLRLLTTILHSDGDLTEQGKISKPDMSRLRLAAGSAIVKLAQEPCYHEIITLEQYQLCALAINDECYQVRQVFAQKLHKGLSRLRLPLEYMAICALCAKDPVKERRAHARQCLVKNINVRREYLKQHAAVSEKLLSLLPEYVVPYTIHLLAHDPDYVKVQDIEQLKDVKECLWFVLEILMAKNENNSHAFIRKMVENIKQTKDAQGPDDAKMNEKLYTVCDVAMNIIMSKSTTYSLESPKDPVLPARFFTQPDKNFSNTKNYLPPEMKSFFTPGKPKTTNVLGAVNKPLSSAGKQSQTKSSRMETVSNASSSSNPSSPGRIKGRLDSSEMDHSENEDYTMSSPLPGKKSDKRDDSDLVRSELEKPRGRKKTPVTEQEEKLGMDDLTKLVQEQKPKGSQRSRKRGHTASESDEQQWPEEKRLKEDILENEDEQNSPPKKGKRGRPPKPLGGGTPKEEPTMKTSKKGSKKKSGPPAPEEEEEEERQSGNTEQKSKSKQHRVSRRAQQRAESPESSAIESTQSTPQKGRGRPSKTPSPSQPKKNVRVGRSKQAATKENDSSEEVDVFQGSSPVDDIPQEETEEEEVSTVNVRRRSAKRERR
B2: ADAR1 (protein, UniProt P55265 1-1226)
chain: MNPRQGYSLSGYYTHPFQGYEHRQLRYQQPGPGSSPSSFLLKQIEFLKGQLPEAPVIGKQTPSLPPSLPGLRPRFPVLLASSTRGRQVDIRGVPRGVHLRSQGLQRGFQHPSPRGRSLPQRGVDCLSSHFQELSIYQDQEQRILKFLEELGEGKATTAHDLSGKLGTPKKEINRVLYSLAKKGKLQKEAGTPPLWKIAVSTQAWNQHSGVVRPDGHSQGAPNSDPSLEPEDRNSTSVSEDLLEPFIAVSAQAWNQHSGVVRPDSHSQGSPNSDPGLEPEDSNSTSALEDPLEFLDMAEIKEKICDYLFNVSDSSALNLAKNIGLTKARDINAVLIDMERQGDVYRQGTTPPIWHLTDKKRERMQIKRNTNSVPETAPAAIPETKRNAEFLTCNIPTSNASNNMVTTEKVENGQEPVIKLENRQEARPEPARLKPPVHYNGPSKAGYVDFENGQWATDDIPDDLNSIRAAPGEFRAIMEMPSFYSHGLPRCSPYKKLTECQLKNPISGLLEYAQFASQTCEFNMIEQSGPPHEPRFKFQVVINGREFPPAEAGSKKVAKQDAAMKAMTILLEEAKAKDSGKSEESSHYSTEKESEKTAESQTPTPSATSFFSGKSPVTTLLECMHKLGNSCEFRLLSKEGPAHEPKFQYCVAVGAQTFPSVSAPSKKVAKQMAAEEAMKALHGEATNSMASDNQPEGMISESLDNLESMMPNKVRKIGELVRYLNTNPVGGLLEYARSHGFAAEFKLVDQSGPPHEPKFVYQAKVGGRWFPAVCAHSKKQGKQEAADAALRVLIGENEKAERMGFTEVTPVTGASLRRTMLLLSRSPEAQPKTLPLTGSTFHDQIAMLSHRCFNTLTNSFQPSLLGRKILAAIIMKKDSEDMGVVVSLGTGNRCVKGDSLSLKGETVNDCHAEIISRRGFIRFLYSELMKYNSQTAKDSIFEPAKGGEKLQIKKTVSFHLYISTAPCGDGALFDKSCSDRAMESTESRHYPVFENPKQGKLRTKVENGEGTIPVESSDIVPTWDGIRLGERLRTMSCSDKILRWNVLGLQGALLTHFLQPIYLKSVTLGYLFSQGHLTRAICCRVTRDGSAFEDGLRHPFIVNHPKVGRVSIYDSKRQSGKTKETSVNWCLADGYDLEILDGTRGTVDGPRNELSRVSKKNIFLLFKKLCSFRYRRDLLRLSYGEAKKAARDYETAKNYFKKGLKDMGYGNWISKPQEEKNFYLCPV
B3: FTSJ3 (protein, UniProt Q8IY81 1-847)
chain: MGKKGKVGKSRRDKFYHLAKETGYRSRSAFKLIQLNRRFQFLQKARALLDLCAAPGGWLQVAAKFMPVSSLIVGVDLVPIKPLPNVVTLQQDITTERCRQALRKELKTWKVDVVLNDGAPNVGASWVHDAYSQAHLTLMALRLACDFLARGGSFITKVFRSRDYQPLLWIFQQLFRRVQATKPQASRHESAEIFVVCQGFLAPDKVDSKFFDPKFAFKEVEVQAKTVTELVTKKKPKAEGYAEGDLTLYHRTSVTDFLRAANPVDFLSKASEIMVDDEELAQHPATTEDIRVCCQDIRVLGRKELRSLLNWRTKLRRYVAKKLKEQAKALDISLSSGEEDEGDEEDSTAGTTKQPSKEEEEEEEEEQLNQTLAEMKAQEVAELKRKKKKLLREQRKQRERVELKMDLPGVSIADEGETGMFSLSTIRGHQLLEEVTQGDMSAADTFLSDLPRDDIYVSDVEDDGDDTSLDSDLDPEELAGVRGHQGLRDQKRMRLTEVQDDKEEEEEENPLLVPLEEKAVLQEEQANLWFSKGSFAGIEDDADEALEISQAQLLFENRRKGRQQQQKQQLPQTPPSCLKTEIMSPLYQDEAPKGTEASSGTEAATGLEGEEKDGISDSDSSTSSEEEESWEPLRGKKRSRGPKSDDDGFEIVPIEDPAKHRILDPEGLALGAVIASSKKAKRDLIDNSFNRYTFNEDEGELPEWFVQEEKQHRIRQLPVGKKEVEHYRKRWREINARPIKKVAEAKARKKRRMLKRLEQTRKKAEAVVNTVDISEREKVAQLRSLYKKAGLGKEKRHVTYVVAKKGVGRKVRRPAGVRGHFKVVDSRMKKDQRAQQRKEQKKKHKRK
B4: SMARCAL1 (protein, UniProt Q9NZC9 1-954)
chain: MSLPLTEEQRKKIEENRQKALARRAEKLLAEQHQRTSSGTSIAGNPFQAKQGPSQNFPRESCKPVSHGVIFKQQNLSSSSNADQRPHDSHSFQAKGIWKKPEEMPTACPGHSPRSQMALTGISPPLAQSPPEVPKQQLLSYELGQGHAQASPEIRFTPFANPTHKPLAKPKSSQETPAHSSGQPPRDAKLEAKTAKASPSGQNISYIHSSSESVTPRTEGRLQQKSGSSVQKGVNSQKGKCVRNGDRFQVLIGYNAELIAVFKTLPSKNYDPDTKTWNFSMNDYSALMKAAQSLPTVNLQPLEWAYGSSESPSTSSEGQAGLPSAPSLSFVKGRCMLISRAYFEADISYSQDLIALFKQMDSRRYDVKTRKWSFLLEEHSKLIAKVRCLPQVQLDPLPTTLTLAFASQLKKTSLSLTPDVPEADLSEVDPKLVSNLMPFQRAGVNFAIAKGGRLLLADDMGLGKTIQAICIAAFYRKEWPLLVVVPSSVRFTWEQAFLRWLPSLSPDCINVVVTGKDRLTAGLINIVSFDLLSKLEKQLKTPFKVVIIDESHFLKNSRTARCRAAMPVLKVAKRVILLSGTPAMSRPAELYTQIIAVKPTFFPQFHAFGLRYCDAKRMPWGWDYSGSSNLGELKLLLEEAVMLRRLKSDVLSQLPAKQRKIVVIAPGRINARTRAALDAAAKEMTTKDKTKQQQKDALILFFNRTAEAKIPSVIEYILDLLESGREKFLVFAHHKVVLDAITQELERKHVQHIRIDGSTSSAEREDLCQQFQLSERHAVAVLSITAANMGLTFSSADLVVFAELFWNPGVLIQAEDRVHRIGQTSSVGIHYLVAKGTADDYLWPLIQEKIKVLAEAGLSETNFSEMTESTDYLYKDPKQQKIYDLFQKSFEKEGSDMELLEAAESFDPGSASGTSGSSSQNMGDTLDESSLTASPQKKRRFEFFDNWDSFTSPL

What follows are binders tested against T1, SA1 (Stromalin Antigen 1, STAG1) (human (endogenous in HCT116)) (assay: affinity purification with mass spectrometry).

binding, binds:
B1, B2, B3, B4

No constants are given. Whether binding was seen depends on the method and setting. Binding seen in cells or lysates may run through a third protein. These calls come from enrichment with a bait or labelling near it, and not all partners need be listed. Tags and fused reporters may be left off the sequences shown.
